In paper PMC7196074 one finds binding data, which are given here for five substances.

Assay [1] concerns the target T1, GFP-Aub (Aubergine) (Drosophila) (UniProt O76922).
T1 sequence: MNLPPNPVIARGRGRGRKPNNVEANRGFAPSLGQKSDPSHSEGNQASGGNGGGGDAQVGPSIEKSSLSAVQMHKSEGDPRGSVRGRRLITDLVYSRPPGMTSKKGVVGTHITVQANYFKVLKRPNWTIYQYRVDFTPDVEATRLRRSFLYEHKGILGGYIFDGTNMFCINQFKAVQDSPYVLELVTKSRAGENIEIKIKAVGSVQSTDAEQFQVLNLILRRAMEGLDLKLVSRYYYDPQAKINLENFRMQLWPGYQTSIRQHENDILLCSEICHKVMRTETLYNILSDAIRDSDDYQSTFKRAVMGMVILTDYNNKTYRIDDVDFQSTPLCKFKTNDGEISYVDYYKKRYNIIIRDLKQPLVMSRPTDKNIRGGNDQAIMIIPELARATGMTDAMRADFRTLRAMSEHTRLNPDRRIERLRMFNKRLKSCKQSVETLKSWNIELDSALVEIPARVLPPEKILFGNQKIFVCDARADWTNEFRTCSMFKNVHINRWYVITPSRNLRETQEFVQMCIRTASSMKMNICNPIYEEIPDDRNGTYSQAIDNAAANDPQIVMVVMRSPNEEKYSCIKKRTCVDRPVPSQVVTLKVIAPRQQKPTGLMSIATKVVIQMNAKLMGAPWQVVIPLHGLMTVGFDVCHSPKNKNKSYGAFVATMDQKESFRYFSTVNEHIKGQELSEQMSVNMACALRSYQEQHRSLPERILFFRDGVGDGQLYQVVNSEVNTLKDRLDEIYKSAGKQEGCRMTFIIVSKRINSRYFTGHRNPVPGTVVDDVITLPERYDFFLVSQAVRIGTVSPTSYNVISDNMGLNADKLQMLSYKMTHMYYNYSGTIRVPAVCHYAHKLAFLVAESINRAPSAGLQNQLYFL
As to the kind of experiment: co-IP; 0-2 h embryo extracts in IP buffer (20 mM Tris pH 7.5, 150 mM NaCl, 0.2% NP-40) with RNase inhibitor; IP with anti-GFP, anti-HA or anti-PABP, 2.5 h at 4 °C; western blot.

Assay [2] has as its target T1, GFP-Aub (Aubergine) (Drosophila). As to the kind of experiment: co-IP; as a3 but extracts with RNase A (40 U/µL); IP with anti-GFP, anti-HA or anti-PABP; western blot. A general note: A western blot detects proteins with antibodies after separation by electrophoresis.
Assay [3] has as its target T2, FLAG-FFL-Aub (Drosophila) (UniProt O76922).
T2 sequence: T1 sequence
As to the kind of experiment: co-IP; LUMIER (quantitative luminescence-based coIP): FLAG-FFL-Aub and HA-RL fusions transiently expressed in S2R+ cells; lysates in HNTG buffer on plates coated with anti-FLAG, 3 h on ice; Renilla and Firefly luciferase activities read; control without antibody.

These are yes or no findings as the source states them, for the method shown. Binding seen in cells or lysates may run through a third protein. Binding calls can cover weak binding; strength is not graded here. Where a sequence is shown, tags or fusion partners need not be part of it.

Take HA-eIF3d (Drosophila): the binding entry in assay [1] and in assay [2] was “binds” throughout.
For the substance HA-RL-eIF4E (Drosophila), the binding result in assay [3] is “binds”.
Still for that read-out and setting: the result for HA-RL-eIF3g (Drosophila) reads “binds”; that for HA-RL-eIF3d (Drosophila), “binds”; that for HA-RL-eIF3f (Drosophila), “no binding”.
